Measurements taken from paper doi:10.1101/2020.11.29.403196.
No constants are given. Whether binding was seen depends on the method and setting. Binding seen in cells or lysates may run through a third protein. Some results given as binding are weak or reduced against the parent protein; the word gives no strength.

Sequences of proteins named here, by UniProt entry; tags and fusion partners are left off.
UniProt Q9WTX6: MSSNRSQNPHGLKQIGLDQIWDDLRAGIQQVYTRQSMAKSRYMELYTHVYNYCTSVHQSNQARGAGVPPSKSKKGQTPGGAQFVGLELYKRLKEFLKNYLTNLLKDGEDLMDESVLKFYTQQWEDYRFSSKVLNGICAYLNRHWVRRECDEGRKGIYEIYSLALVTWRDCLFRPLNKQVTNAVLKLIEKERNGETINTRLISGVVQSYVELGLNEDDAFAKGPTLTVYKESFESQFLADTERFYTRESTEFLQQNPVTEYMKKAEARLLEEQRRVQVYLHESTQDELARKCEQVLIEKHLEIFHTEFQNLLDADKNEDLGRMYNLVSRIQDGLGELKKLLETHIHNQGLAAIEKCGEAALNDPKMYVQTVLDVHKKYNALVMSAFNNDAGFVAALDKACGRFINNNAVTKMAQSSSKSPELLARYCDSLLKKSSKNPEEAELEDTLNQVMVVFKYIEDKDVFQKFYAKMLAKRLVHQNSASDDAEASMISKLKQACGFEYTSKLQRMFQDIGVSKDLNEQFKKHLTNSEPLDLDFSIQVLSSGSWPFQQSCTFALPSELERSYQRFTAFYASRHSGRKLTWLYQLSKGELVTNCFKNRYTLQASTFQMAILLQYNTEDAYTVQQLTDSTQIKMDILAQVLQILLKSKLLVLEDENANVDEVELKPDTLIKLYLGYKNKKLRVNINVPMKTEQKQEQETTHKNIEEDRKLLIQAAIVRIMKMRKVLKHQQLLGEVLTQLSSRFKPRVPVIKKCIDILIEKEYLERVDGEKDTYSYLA
UniProt Q62833: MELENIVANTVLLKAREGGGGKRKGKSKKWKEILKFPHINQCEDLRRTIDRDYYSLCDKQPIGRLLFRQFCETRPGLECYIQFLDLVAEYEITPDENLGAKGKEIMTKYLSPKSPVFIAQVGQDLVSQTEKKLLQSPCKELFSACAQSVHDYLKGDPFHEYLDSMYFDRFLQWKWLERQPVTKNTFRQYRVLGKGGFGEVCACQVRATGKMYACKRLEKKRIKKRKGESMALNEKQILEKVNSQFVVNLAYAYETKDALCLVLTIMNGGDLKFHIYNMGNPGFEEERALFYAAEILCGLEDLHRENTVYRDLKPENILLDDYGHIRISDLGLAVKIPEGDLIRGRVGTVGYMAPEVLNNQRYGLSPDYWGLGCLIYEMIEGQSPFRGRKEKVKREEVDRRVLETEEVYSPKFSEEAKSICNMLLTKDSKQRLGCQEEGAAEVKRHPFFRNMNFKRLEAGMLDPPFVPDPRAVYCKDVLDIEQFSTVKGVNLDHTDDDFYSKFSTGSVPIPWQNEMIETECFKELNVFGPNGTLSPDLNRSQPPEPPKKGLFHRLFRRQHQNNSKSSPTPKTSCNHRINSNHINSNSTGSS

Columns and labels:
[1] = target: T1, Cullin-associated NEDD8-dissociated protein 2 (Cand2), mouse, endogenous (mouse (endogenous in neonatal mouse cardiomyocytes)) (UniProt Q6ZQ73); assay: proximity ligation
T1 sequence: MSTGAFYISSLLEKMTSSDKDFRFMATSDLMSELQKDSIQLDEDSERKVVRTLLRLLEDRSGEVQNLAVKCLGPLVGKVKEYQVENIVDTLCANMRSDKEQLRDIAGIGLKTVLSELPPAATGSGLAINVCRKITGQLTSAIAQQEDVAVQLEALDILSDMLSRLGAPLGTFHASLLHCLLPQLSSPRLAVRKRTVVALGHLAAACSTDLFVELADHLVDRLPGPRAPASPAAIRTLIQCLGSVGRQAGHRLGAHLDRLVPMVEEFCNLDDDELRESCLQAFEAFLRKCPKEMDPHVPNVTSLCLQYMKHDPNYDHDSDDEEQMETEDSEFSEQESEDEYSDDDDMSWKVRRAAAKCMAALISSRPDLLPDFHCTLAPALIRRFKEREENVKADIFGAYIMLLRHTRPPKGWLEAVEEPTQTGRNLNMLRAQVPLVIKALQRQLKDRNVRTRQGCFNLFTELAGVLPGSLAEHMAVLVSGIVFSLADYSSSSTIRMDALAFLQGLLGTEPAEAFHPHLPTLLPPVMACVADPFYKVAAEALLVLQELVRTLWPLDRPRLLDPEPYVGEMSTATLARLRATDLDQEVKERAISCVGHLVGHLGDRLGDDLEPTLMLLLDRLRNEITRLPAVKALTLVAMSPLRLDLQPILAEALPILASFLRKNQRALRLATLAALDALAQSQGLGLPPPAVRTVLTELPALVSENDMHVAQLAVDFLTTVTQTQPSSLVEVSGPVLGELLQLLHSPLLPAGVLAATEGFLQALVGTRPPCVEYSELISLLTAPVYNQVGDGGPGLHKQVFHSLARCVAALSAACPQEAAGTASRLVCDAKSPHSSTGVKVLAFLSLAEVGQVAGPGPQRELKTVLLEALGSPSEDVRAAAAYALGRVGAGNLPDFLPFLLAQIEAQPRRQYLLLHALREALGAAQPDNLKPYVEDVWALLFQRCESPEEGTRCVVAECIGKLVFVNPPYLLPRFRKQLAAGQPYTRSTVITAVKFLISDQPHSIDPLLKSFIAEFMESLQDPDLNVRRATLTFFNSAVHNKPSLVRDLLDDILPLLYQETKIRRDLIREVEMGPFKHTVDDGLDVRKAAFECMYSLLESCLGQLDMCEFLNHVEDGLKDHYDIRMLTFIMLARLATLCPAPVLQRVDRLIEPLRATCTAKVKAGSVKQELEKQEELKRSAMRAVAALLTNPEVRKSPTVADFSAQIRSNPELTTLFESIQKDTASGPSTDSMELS

[2] = target: T2, Cullin-associated NEDD8-dissociated protein 2 (Cand2), rat, endogenous (rat (endogenous in neonatal rat ventricular cardiomyocytes)) (UniProt Q9R0L4); assay: proximity ligation
T2 sequence: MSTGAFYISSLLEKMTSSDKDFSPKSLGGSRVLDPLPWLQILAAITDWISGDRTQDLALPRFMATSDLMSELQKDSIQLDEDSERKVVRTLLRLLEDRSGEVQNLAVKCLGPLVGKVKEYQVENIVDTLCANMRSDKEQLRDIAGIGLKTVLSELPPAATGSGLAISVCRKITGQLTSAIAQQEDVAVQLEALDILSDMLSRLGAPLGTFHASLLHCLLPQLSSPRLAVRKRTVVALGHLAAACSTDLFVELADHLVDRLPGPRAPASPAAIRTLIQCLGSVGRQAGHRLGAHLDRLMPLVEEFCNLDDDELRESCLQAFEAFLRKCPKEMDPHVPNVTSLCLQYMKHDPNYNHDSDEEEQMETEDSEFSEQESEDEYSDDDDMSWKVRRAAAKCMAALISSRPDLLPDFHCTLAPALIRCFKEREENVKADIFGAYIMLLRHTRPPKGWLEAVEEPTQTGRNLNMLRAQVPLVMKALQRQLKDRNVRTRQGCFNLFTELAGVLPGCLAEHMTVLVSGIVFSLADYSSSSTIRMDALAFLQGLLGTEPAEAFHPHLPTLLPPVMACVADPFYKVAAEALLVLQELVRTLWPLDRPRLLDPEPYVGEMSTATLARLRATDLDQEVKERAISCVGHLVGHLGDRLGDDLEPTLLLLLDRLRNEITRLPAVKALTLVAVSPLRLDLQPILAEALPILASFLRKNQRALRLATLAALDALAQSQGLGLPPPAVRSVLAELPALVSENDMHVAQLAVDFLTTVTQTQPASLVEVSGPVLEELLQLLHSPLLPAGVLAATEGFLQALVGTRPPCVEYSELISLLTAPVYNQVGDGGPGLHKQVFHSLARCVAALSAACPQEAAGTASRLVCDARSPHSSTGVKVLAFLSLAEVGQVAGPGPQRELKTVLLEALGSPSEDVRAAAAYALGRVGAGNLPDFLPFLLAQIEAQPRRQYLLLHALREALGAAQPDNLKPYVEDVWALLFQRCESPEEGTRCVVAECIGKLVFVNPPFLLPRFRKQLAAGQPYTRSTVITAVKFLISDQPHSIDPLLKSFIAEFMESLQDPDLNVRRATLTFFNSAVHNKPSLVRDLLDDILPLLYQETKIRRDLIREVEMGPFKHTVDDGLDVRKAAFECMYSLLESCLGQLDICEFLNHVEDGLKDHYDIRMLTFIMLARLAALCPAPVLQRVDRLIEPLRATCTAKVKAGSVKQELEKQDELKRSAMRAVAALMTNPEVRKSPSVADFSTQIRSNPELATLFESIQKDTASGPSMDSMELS

[3] = target: T2, Cullin-associated NEDD8-dissociated protein 2 (Cand2), rat, endogenous (rat (endogenous in neonatal rat ventricular cardiomyocytes)); assay: co-IP

With “Cullin1, mouse, endogenous (from UniProt Q9WTX6 1-776)” the binding [1] was “binds”.

With “G-protein coupled receptor kinase 5 (Grk5), rat, endogenous (from UniProt Q62833 1-590) (enzyme)” the binding [2] was “binds” and the binding [3] was “binds”.
